According to doi:10.1101/376103:

What was measured:
Test in all cases: co-IP
HA-PP2A [1] = target: HA-PP2A (UniProt P67775)
HA-PP2A [2] = target: HA-PP2A (UniProt P67775); remark: listed apart in the source
Flag-tagged PP4 = target: Flag-tagged PP4
HA-PP2A [3] = target: HA-PP2A (UniProt P67775); remark: listed apart in the source
HA-tagged PP1 = target: HA-tagged PP1

binding (HA-PP2A [1]): binds
binding (HA-PP2A [2]): binds
Molecule: Flag-p65 (from UniProt Q04206 1-551)

binding (Flag-tagged PP4): no binding
binding (HA-PP2A [3]): no binding
binding (HA-tagged PP1): no binding
B1: Myc-GdX (protein, UniProt P11441 1-157)
chain: MQLTVKALQGRECSLQVPEDELVSTLKQLVSEKLNVPVRQQRLLFKGKALADGKRLSDYSIGPNSKLNLVVKPLEKVLLEEGEAQRLADSPPPQVWQLISKVLARHFSAADASRVLEQLQRDYERSLSRLTLDDIERLASRFLHPEVTETMEKGFSK

Where two headings read alike, the source gives them in different places. No constants are given. Whether binding was seen depends on the method and setting. In cells and extracts the contact can be indirect. For some assays here: Binding calls can cover weak binding; strength is not graded here. For some assays here: Sequences can lack the tags named with a protein. Each block holds one molecule with its values, some of them ahead of it.
